These are yes or no findings as the source states them, for the method shown. Binding seen in cells or lysates may run through a third protein. Binding calls can cover weak binding; strength is not graded here. Where a sequence is shown, tags or fusion partners need not be part of it.
Tests used:
Test in all cases: co-IP; HEK cells co-transfected for 24 h with GFP-tagged neuroplastin constructs and Flag-TRAF6; RIPA lysate; anti-GFP magnetic beads (uMACS), 4 h at 4 C; blot with anti-Flag and anti-GFP
[1] = target: GFP-tagged neuroplastin 55 with the DDEP insert
[2] = target: GFP-tagged neuroplastin 55 without the DDEP insert
[3] = target: GFP-tagged neuroplastin 65 with the DDEP insert (UniProt P97546)

Sequences of proteins named here, by UniProt entry; tags and fusion partners are left off. A change or cut given only in a name is not applied to a line headed by its entry.
UniProt P97546: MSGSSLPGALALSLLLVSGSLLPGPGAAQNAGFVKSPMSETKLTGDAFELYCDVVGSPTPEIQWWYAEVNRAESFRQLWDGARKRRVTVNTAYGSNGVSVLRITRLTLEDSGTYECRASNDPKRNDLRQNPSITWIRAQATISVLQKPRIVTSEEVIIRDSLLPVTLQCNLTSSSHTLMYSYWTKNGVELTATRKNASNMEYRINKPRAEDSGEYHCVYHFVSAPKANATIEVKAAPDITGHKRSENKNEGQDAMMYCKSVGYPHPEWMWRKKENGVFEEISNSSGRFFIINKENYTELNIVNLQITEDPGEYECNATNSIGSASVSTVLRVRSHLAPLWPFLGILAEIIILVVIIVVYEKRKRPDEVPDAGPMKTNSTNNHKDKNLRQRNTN

binding [1]: binds | binding [2]: binds | binding [3]: binds
B1: mouse N-terminal Flag-tagged TRAF6 (protein, UniProt P70196 1-530)
chain: MSLLNCENSCGSSQSSSDCCAAMAASCSAAVKDDSVSGSASTGNLSSSFMEEIQGYDVEFDPPLESKYECPICLMALREAVQTPCGHRFCKACIIKSIRDAGHKCPVDNEILLENQLFPDNFAKREILSLTVKCPNKGCLQKMELRHLEDHQVHCEFALVNCPQCQRPFQKCQVNTHIIEDCPRRQVSCVNCAVSMAYEEKEIHDQSCPLANIICEYCGTILIREQMPNHYDLDCPTAPIPCTFSVFGCHEKMQRNHLARHLQENTQLHMRLLAQAVHNVNLALRPCDAASPSRGCRPEDPNYEETIKQLESRLVRQDHQIRELTAKMETQSMYVGELKRTIRTLEDKVAEMEAQQCNGIYIWKIGNFGMHLKSQEEERPVVIHSPGFYTGRPGYKLCMRLHLQLPTAQRCANYISLFVHTMQGEYDSHLPWPFQGTIRLTILDQSEALIRQNHEEVMDAKPELLAFQRPTIPRNPKGFGYVTFMHLEALRQGTFIKDDTLLVRCEVSTRFDMGGLRKEGFQPRSTDAGV
